Assay results

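SH-SY5Y cells carrying a GLuc-SERCaMP reporter are challenged with thapsigargin, and luminescence from the secreted luciferase is read, with one incubation step lasting 4 hours. Compounds were run as a dilution series spanning about 2.6e-05 to 200 µM, mostly topping out at 38.4 µM. The number is the fitted AC50 for inhibition of the reporter signal; a lower value means a more potent compound. Calls come from curve class and activity score: actives score 40 to 100, inconclusives 1 to 39, and inactives (curve class 4) score 0.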

Values are in µM. Every entry below has the call inconclusive. Only part of the assay is shown, chiefly results filed as inconclusive. Potencies fitted to partial, single-point or poorly fitting curves are rough. Some entries filed as inconclusive have a full curve. Activity scores are not listed here.

For O=C(O)Cc1ccc(O)c(O)c1 the result was fitted potency 10 µM (inhibitor, partial curve, poor fit). COCCOC(=O)C1=C(C)NC(C)=C(C(=O)OC(C)C)[C@@H]1c1cccc([N+](=O)[O-])c1 gave fitted potency 10 µM (inhibitor, single point). O=S(=O)(c1ccccc1)N1CCC[C@@]2(CCN(Cc3nccs3)C2)C1 read fitted potency 6.31 µM (inhibitor, partial curve, poor fit). For COc1ccccc1CN1CC[C@@]2(CCCN(C(=O)c3ccco3)C2)C1 the result was fitted potency 10 µM (inhibitor, partial curve, poor fit). Cc1c(-c2ccc(Cl)cc2)noc1C1CCN(CCc2ccccc2)CC1 gave fitted potency 10 µM (inhibitor, single point). For CCCCCCCCCCCCCCC[C@H](O)[C@H](N)CO the result was fitted potency 11.22 µM (inhibitor, partial curve, poor fit). O=C(Nc1ccccc1)c1cc([N+](=O)[O-])ccc1Cl gave fitted potency 35.48 µM (inhibitor, partial curve).

Oc1ccc2c3c1O[C@H]1c4[nH]c5ccccc5c4C[C@@]4(O)C(C2)N(CC2CC2)CCC314 (stereo partly drawn) read fitted potency 5.623 µM (inhibitor, partial curve, poor fit). NS(=O)(=O)c1cccc2c1c([N+](=O)[O-])cc1nc(O)c(O)nc12 gave fitted potency 10 µM (inhibitor, partial curve, poor fit). COc1cc2nc(N3CCN(C(=O)C4CCCO4)CC3)nc(N)c2cc1OC (stereo not drawn) gave fitted potency 2.239 µM (inhibitor, full curve, poor fit). C[C@]12CCC3=C4CCC(=O)C=C4CC[C@@H]3[C@H]1CC[C@@]2(O)CC#N gave fitted potency 0.0011 µM (inhibitor). Result for Cc1nc2sccn2c(=O)c1CCN1CCC(=C(c2ccccc2)c2ccc(F)cc2)CC1 was fitted potency 15.85 µM (inhibitor, single point). NC(N)=NC(N)=Nc1ccccc1 gave fitted potency 31.62 µM (inhibitor, full curve). Result for Fc1ccc(C(OCCN2CCN(C/C=C/c3ccccc3)CC2)c2ccc(F)cc2)cc1 was fitted potency 5.012 µM (inhibitor, partial curve, poor fit).

Cc1ccccc1-c1nccc(Nc2ccc(F)cc2)n1 read fitted potency 22.39 µM (inhibitor, partial curve, poor fit). Result for CCNc1ncc2nc(C)c(=O)n(CCc3ccccc3)c2n1 was fitted potency 28.18 µM (inhibitor, single point).

The first 2 entries again:

| structure | fitted potency (µM) | curve |
|---|---|---|
| `O=C(O)Cc1ccc(O)c(O)c1` | 10 | inhibitor, partial curve, poor fit |
| `COCCOC(=O)C1=C(C)NC(C)=C(C(=O)OC(C)C)[C@@H]1c1cccc([N+](=O)[O-])c1` | 10 | inhibitor, single point |

Source: PubChem BioAssay AID1508630 (NCATS, 2021).